In article PMC10795463:
These are yes or no findings as the source states them, for the method shown. Binding seen in cells or lysates may run through a third protein. Here binding means that the protein was enriched with, or labelled near, the bait; the list need not be complete.

Protein sequences, listed by entry. Tags and fused reporters are not part of them.
UniProt Q86U44: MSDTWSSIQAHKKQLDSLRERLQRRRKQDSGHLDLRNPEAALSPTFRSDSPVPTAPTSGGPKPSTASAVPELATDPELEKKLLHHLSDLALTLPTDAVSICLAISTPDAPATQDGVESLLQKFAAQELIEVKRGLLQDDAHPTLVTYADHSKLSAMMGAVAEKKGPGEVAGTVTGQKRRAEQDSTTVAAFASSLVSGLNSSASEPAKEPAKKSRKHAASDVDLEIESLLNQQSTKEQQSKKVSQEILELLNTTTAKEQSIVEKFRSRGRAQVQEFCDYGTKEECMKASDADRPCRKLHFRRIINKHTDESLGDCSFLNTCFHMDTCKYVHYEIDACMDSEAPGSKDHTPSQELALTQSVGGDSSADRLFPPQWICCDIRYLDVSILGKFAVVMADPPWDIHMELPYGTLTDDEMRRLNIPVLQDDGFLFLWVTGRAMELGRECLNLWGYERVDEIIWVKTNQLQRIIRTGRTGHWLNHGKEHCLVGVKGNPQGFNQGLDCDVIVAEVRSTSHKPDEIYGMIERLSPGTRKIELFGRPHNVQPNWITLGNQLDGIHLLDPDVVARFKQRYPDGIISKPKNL
UniProt Q13347: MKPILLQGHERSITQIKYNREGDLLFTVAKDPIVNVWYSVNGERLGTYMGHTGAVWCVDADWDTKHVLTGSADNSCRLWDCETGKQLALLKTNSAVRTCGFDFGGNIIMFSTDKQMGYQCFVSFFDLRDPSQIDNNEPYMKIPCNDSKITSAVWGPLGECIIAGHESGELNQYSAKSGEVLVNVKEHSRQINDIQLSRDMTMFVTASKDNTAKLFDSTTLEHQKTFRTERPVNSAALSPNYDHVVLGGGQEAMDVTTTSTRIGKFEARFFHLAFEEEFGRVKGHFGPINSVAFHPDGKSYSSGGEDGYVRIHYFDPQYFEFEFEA
UniProt P60228: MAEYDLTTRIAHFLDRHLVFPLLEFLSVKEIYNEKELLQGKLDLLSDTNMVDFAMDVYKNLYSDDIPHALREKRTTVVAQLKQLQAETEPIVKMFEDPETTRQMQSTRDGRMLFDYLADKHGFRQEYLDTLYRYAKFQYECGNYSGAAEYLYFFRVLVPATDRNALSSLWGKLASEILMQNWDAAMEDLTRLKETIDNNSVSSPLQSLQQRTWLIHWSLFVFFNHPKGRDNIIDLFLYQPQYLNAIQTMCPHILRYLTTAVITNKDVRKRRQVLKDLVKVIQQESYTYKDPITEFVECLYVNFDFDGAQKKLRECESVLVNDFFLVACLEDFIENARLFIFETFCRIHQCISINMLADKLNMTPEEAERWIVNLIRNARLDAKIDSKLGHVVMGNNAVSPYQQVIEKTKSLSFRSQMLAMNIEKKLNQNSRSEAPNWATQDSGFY

Molecular target: METTL3 (human (endogenous in A549)) (UniProt Q86U44)
Experiment: affinity purification with mass spectrometry; immunoprecipitation with anti-METTL3 from A549 cells, IgG group as control, two replicates each; qualitative protein profiling by mass spectrometry

Row | binding | Substance
1 | binds | eIF3i (from UniProt Q13347 1-325)
2 | binds | eIF3e (from UniProt P60228 1-445)
